How the values were obtained:
Settings in all cases: 1 equivalent, DMSO-d6, straight after mixing
[1] = NMR reactivity with N-acetyl histidine
[2] = NMR reactivity with N-acetyl cysteine
[3] = NMR reactivity with N-acetyl methionine

Row | Structure (SMILES) | NMR Conversion, Cationic (b form), N-AcHis [1] [%] | NMR Conversion, Cationic (b form), N-AcCys [2] [%] | NMR Conversion, Cationic (b form), N-AcMet [3] [%]
1 | C[n+]1ccn2[c]1[Au-]1([c]3cc(C(C)(C)C)ccc3-c3ccc(C(C)(C)C)c[c]31)[n+]1ccncc1C2.F[P-](F)(F)(F)(F)F [BGC17b] | 100 | 100 | 0
2 | C[n+]1ccn2[c]1[Au-]1([c]3cc(C(C)(C)C)ccc3-c3ccc(C(C)(C)C)c[c]31)[n+]1c(ccc3ccccc31)C2.F[P-](F)(F)(F)(F)F [BGC16b] | – | 100 | 0
3 | COc1cc[n+]2c(c1)Cn1cc[n+](C)[c]1[Au-]21[c]2cc(C(C)(C)C)ccc2-c2ccc(C(C)(C)C)c[c]21.F[P-](F)(F)(F)(F)F [BGC15b] | 100 | 100 | 0
4 | Cc1cc[n+]2c(c1)Cn1cc[n+](C)[c]1[Au-]21[c]2cc(C(C)(C)C)ccc2-c2ccc(C(C)(C)C)c[c]21.F[P-](F)(F)(F)(F)F [BGC14b] | 100 | 100 | 0
5 | C[n+]1ccn2[c]1[Au-]1([c]3cc(C(C)(C)C)ccc3-c3ccc(C(C)(C)C)c[c]31)[n+]1ccccc1C2.F[P-](F)(F)(F)(F)F [BGC12b] | 92 | 100 | 0
6 | CC(C)(C)c1ccc2[c](c1)[Au-]1([c]3cc(C(C)(C)C)ccc3-2)[c]2n3ccccc3c[n+]2Cc2cccc[n+]21.F[P-](F)(F)(F)(F)F [BGC19b] | 100 | 100 | 0
7 | C[n+]1[c]2n(c3ccccc31)Cc1cccc[n+]1[Au-]21[c]2cc(C(C)(C)C)ccc2-c2ccc(C(C)(C)C)c[c]21.F[P-](F)(F)(F)(F)F [BGC18b] | – | – | 0
8 | Cc1cccc2[n+]1[Au-]1([c]3cc(C(C)(C)C)ccc3-c3ccc(C(C)(C)C)c[c]31)[c]1n(cc[n+]1C)C2.F[P-](F)(F)(F)(F)F [BGC13b] | 100 | 100 | 0

From PMC12276038, “Impact of Chelation on Reactivity and Cytotoxicity of Hemilabile Biphenyl Gold(III) N‐Heterocyclic Carbene Complexes” (Chemmedchem, 2025)
